## Screening data

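Wild-type Hh fibroblast control cells treated with compounds for 48 h, with viability read as CellTiter-Glo luminescence and fitted into a concentration-response curve.
Each compound was tested as a dilution series reaching a top concentration of about 46 µM.
The number is the fitted half-maximal potency for cytotoxicity; a lower value means a more potent cell-killing compound.
Calls come from curve class and a score: actives score 40 to 100 and inconclusives 1 to 39, so weak, poorly fitted or single-point curves are inconclusive.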

Values are in µM.
All entries here are filed as inconclusive.
Only part of the assay is shown, chiefly results filed as inconclusive.
Potencies fitted to partial, single-point or poorly fitting curves are rough.
Some entries filed as inconclusive have a full curve.
Activity scores are not listed here.
An entry listed twice with the same setting is a separate test.

compound	Potency (µM)	remark
CC(C)n1nc(-c2ccc3oc(N)nc3c2)c2c(N)ncnc21	0.0026	cytotoxic, full curve
O=C(O)C[C@H](O)C[C@H](O)C=Cc1c(C2CC2)nc2ccccc2c1-c1ccc(F)cc1	3.722	cytotoxic, full curve
Cc1nc(C(=O)NCC(=O)O)c(O)c2ccc(Oc3ccccc3)cc12	11.77	cytotoxic, partial curve
O=C(Nc1ccc([N+](=O)[O-])cc1Cl)c1cc(Cl)ccc1O	23.48	cytotoxic, single point
Oc1ccc([C@@H]2Oc3ccc(O)cc3[C@@H]3CCC[C@@H]32)cc1	16.63	cytotoxic, partial curve
CC=C(C)C(=O)O[C@H]1C(C)=C[C@]23C(=O)[C@@H](C=C(CO)[C@@H](O)[C@]12O)[C@H]1[C@@H](C[C@H]3C)C1(C)C	0.0209	cytotoxic, full curve
CCCCCCCCCCCCCC[N+](C)(C)C	6.684	cytotoxic, full curve, poor fit
O=C(Nc1cc(Cl)cc2c1[nH]c1cnccc12)c1cccnc1	2.635	cytotoxic, partial curve
CCCC(=O)c1cc(O)c(O)cc1O	68.59	cytotoxic, single point
CCc1cc(Nc2nccc(-c3c(-c4ccc(OC)c(C(=O)Nc5c(F)cccc5F)c4)nc4ccccn34)n2)c(OC)cc1N1CCC(N2CCN(S(C)(=O)=O)CC2)CC1	4.176	cytotoxic, partial curve
C[C@H]1C[C@@H]2[C@@H]([C@@H](O)C[C@@]3(C)[C@H]2CC[C@]3(O)C(=O)CO)[C@@]2(C)C=CC(=O)C=C12	14.82	cytotoxic, partial curve, poor fit
COc1ccc(C=Cc2cc(OC)c(OC)c(OC)c2)cc1NC(=O)[C@H](N)CO	0.0093	cytotoxic, full curve
COc1ccc(-c2ccc3c(N4CCOCC4)nc(N4C[C@@H](C)O[C@@H](C)C4)nc3n2)cc1CO	0.1865	cytotoxic, full curve
CO[C@H]1C[C@@H]2CC[C@@H](C)[C@@](O)(O2)C(=O)C(=O)N2CCCC[C@@H]2C(=O)O[C@H]([C@H](C)C[C@@H]2CC[C@H](OCCO)[C@H](OC)C2)CC(=O)[C@H](C)C=C(C)[C@@H](O)[C@@H](OC)C(=O)[C@H](C)C[C@H](C)C=CC=CC=C1C	0.5258	cytotoxic, full curve, poor fit
COc1cccc([C@@H](C)NCCCc2ccccc2Cl)c1	23.48	cytotoxic, partial curve
CC[C@@]1(O)C(=O)OCc2c1cc1n(c2=O)Cc2cc3c(CN(C)C)c(O)ccc3nc2-1	16.63	cytotoxic, partial curve
COc1cc(C=CC(=O)CC(=O)C=Cc2ccc(O)c(OC)c2)ccc1O	67.92	cytotoxic, single point
COc1cc([C@@H]2c3cc4c(cc3[C@@H](O[C@@H]3O[C@@H]5CO[C@@H](c6cccs6)O[C@@H]5[C@H](O)[C@@H]3O)[C@H]3COC(=O)[C@H]23)OCO4)cc(OC)c1O	33.17	cytotoxic, single point
CC[C@@]1(O)C(=O)OCc2c1cc1n(c2=O)Cc2cc3c(CN(C)C)c(O)ccc3nc2-1	9.441	cytotoxic, partial curve
CC(C)(O)c1cc2nc(-c3cnc(N)nc3)nc(N3CCOCC3)c2s1	0.2093	cytotoxic, full curve
Cc1nc(N)ncc1-c1nc(N2CCOCC2)c2sc(C(C)(C)O)cc2n1	2.093	cytotoxic, full curve
O=C(c1ccccc1)c1ccccc1	1.189	cytotoxic, partial curve, poor fit
CCCCC(CC)COC(=O)C(C#N)=C(c1ccccc1)c1ccccc1 (centres unmarked)	29.57	cytotoxic, single point
CN(C)CCOC(c1ccccc1)c1ccccc1	37.22	cytotoxic, single point
O=C(O)c1cc(=O)[nH]c(=O)[nH]1	29.86	cytotoxic, single point
C#Cc1cccc(Nc2ncnc3cc(OCCOC)c(OCCO)cc23)c1	10.49	cytotoxic, partial curve
Oc1cccc(-c2c3nc(c(-c4cccc(O)c4)c4ccc([nH]4)c(-c4cccc(O)c4)c4nc(c(-c5cccc(O)c5)c5ccc2[nH]5)CC4)C=C3)c1	29.86	cytotoxic, single point
CCC(=O)N[C@H]1CC[C@H](C(=O)N(C)c2ccc(-c3nc4ccccc4o3)cc2)C1	10.49	cytotoxic, partial curve
Cc1ccc2nc(NCCN)c3ncc(C)n3c2c1	16.63	cytotoxic, partial curve
CC[C@H]1OC(=O)[C@H](C)C(=O)[C@H](C)[C@@H](O[C@H]2O[C@H](C)C[C@H](N(C)C)[C@@H]2O)[C@](C)(OC)C[C@@H](C)C(=O)[C@H](C)[C@H]2N(CCCCn3cnc(-c4cccnc4)c3)C(=O)O[C@]12C	14.82	cytotoxic, partial curve, poor fit
CCOC(=O)N1CCN([N+]([O-])=NOc2ccc([N+](=O)[O-])cc2C#N)CC1	37.22	cytotoxic, partial curve, poor fit
Cc1ccccc1-n1c(Cn2cnc3c(N)ncnc32)nc2cccc(C)c2c1=O	1.049	cytotoxic, full curve, poor fit
COC[C@@H](c1ccc(C(F)(F)F)cc1)N1CCN(C2(C)CCN(C(=O)c3c(C)ncnc3C)CC2)C[C@H]1C	9.35	cytotoxic, full curve
Cc1nc(Nc2ncc(C(=O)Nc3c(C)cccc3Cl)s2)cc(N2CCN(CCO)CC2)n1	0.1679	cytotoxic, full curve
CN(C)C1CCN(C(=O)c2ccc(NC(=O)Nc3nc(N4CCOCC4)nc(N4CCOCC4)n3)cc2)CC1	0.0372	cytotoxic, full curve
Nc1ccc2cc3ccc(N)cc3nc2c1	29.86	cytotoxic, single point
Nc1nc(Nc2ccc(S(N)(=O)=O)cc2)nn1C(=O)c1c(F)cccc1F	11.77	cytotoxic, full curve
O=C1NC(=O)C(=Cc2cccc(C(F)(F)F)c2)S1	14.82	cytotoxic, partial curve
COc1cc2nc(N3CCN(C(=O)c4ccco4)CC3)nc(N)c2cc1OC	37.22	cytotoxic, single point
NS(=O)(=O)c1cccc2c1C(=O)c1cccc(O)c1C2=O	37.22	cytotoxic, single point
CCN(CC)CCOc1ccc(Cc2ccccc2)cc1	18.65	cytotoxic, partial curve, poor fit
CC(=CC(=O)Nc1ccccc1C(=O)O)c1ccc2ccccc2c1	33.17	cytotoxic, partial curve, poor fit
O=C1NCCN1CCN1CCC(c2cn(-c3ccc(F)cc3)c3ccc(Cl)cc23)CC1	23.72	cytotoxic, single point
COc1ccc(F)c(F)c1C(=O)c1cnc(NC2CCN(S(C)(=O)=O)CC2)nc1N	13.21	cytotoxic, partial curve, poor fit
CNC1CCC(N(Cc2cccc(-c3ccncc3)c2)C(=O)c2sc3c(F)ccc(F)c3c2Cl)CC1 (centres unmarked)	20.93	cytotoxic, partial curve, poor fit
Cc1nc(Nc2ncc(C(=O)Nc3c(C)cccc3Cl)s2)cc(N2CCN(CCO)CC2)n1	0.0418	cytotoxic, full curve, poor fit
CN(C)Cc1ccc(-c2nc3cccc4c3n2CCNC4=O)cc1	26.35	cytotoxic, single point
O=C(c1ccccc1)c1ccc2n1CCC2C(=O)O (centres unmarked)	16.63	cytotoxic, partial curve
CC(C)NC[C@@H](C(=O)N1CCN(c2ncnc3c2[C@H](C)C[C@H]3O)CC1)c1ccc(Cl)cc1	3.317	cytotoxic, partial curve
Fc1ccc(C(OCCN2CCN(CCCc3ccccc3)CC2)c2ccc(F)cc2)cc1	26.61	cytotoxic, partial curve, poor fit
CNCCCC12CCC(c3ccccc31)c1ccccc12	9.35	cytotoxic, partial curve, poor fit
N=C(N=C(N)N)N1CCOCC1	37.22	cytotoxic, partial curve, poor fit

3 of the entries, repeated:

- Oc1ccc([C@@H]2Oc3ccc(O)cc3[C@@H]3CCC[C@@H]32)cc1 : Potency 16.63 µM (cytotoxic, partial curve)
- O=C(c1ccccc1)c1ccc2n1CCC2C(=O)O (centres unmarked) : Potency 16.63 µM (cytotoxic, partial curve)
- CC(C)(O)c1cc2nc(-c3cnc(N)nc3)nc(N3CCOCC3)c2s1 : Potency 0.2093 µM (cytotoxic, full curve)

Data taken from PubChem BioAssay AID1347106, deposited by NCATS (2019).